Source: US7041498
No constants are given. Whether binding was seen depends on the method and setting. Some binding calls cover weakened binding; strength is not graded here.

Protein sequences, listed by entry. Tags and fused reporters are not part of them.
UniProt P19793: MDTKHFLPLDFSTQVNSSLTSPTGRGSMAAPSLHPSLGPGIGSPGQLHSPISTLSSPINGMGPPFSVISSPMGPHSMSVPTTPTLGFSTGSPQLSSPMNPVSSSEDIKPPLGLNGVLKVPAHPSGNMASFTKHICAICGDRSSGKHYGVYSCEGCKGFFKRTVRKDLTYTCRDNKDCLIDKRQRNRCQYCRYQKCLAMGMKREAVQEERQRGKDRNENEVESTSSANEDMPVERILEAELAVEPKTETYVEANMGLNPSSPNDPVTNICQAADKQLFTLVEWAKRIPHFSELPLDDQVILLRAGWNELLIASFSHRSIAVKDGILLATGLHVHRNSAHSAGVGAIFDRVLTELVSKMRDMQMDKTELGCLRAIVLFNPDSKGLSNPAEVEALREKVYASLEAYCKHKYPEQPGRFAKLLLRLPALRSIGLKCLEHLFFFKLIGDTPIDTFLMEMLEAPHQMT

Key:
[1] = target: RXRα, in vitro translated (UniProt P19793); test: electrophoretic mobility shift assay, in vitro translated proteins on 32P-labeled idealized IR1 DNA
[2] = target: RXRα, in vitro translated (UniProt P19793); test: electrophoretic mobility shift assay, in vitro translated proteins on 32P-labeled hsp27-EcRE DNA

binding [1]: binds | binding [2]: binds
B1: FAR (Farnesoid Activated Receptor), in vitro translated (receptor)
chain: MNLIGPSHLQATDEFALSENLFGVLTEHAAGPLGQNLDLESYSPYNNVQFPQVQPQISSSSYYSNLGFYPQQPEDWYSPGLYELRRMPTESVYQGETEVSEMPVTKKPRMAASSAGRIKGDELCVVCGDRASGYHYNALTCEGCKGFFRRSITKNAVYKCKNGGNCVMDMYMRRKCQDCRLRKCREMGMLAECLLTEIQCKSKRLRKNVKQHADQTVNEDSEGRDLRQVTSTTKLCREKTELTVDQQTLLDYIMDSYSKQRMPQEITNKILKEEFSAEENFLILTEMATSHVQILVEFTKRLPGFQTLDHEDQIALLKGSAVEAMFLRSAEIFNKKLLPDTQTCWKKEFERAASPMRYITPMFSFYKSVGELKMTQEEYALLTAIVILSPDRQYIKDREAVEKLQEPLLDVLQKLCKIYQPENPQHFACLLGRLTELRTFNHHHAEMLMSWRVNDHKFTPLLCEIWDVQ
